# From PubChem BioAssay AID651947 (Broad Institute, 2012)
# The shares of active, inactive and inconclusive entries below differ from those in the screen. The source made the active and inactive calls.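 How the source made its calls: active means luminescence drop in HepG2 cells whose fitted half-effect dose is at most twice the top valid dose; inconclusive means flat curve with 30 to 70% signal loss, or unreliable fit; inactive means the rest.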
# Assay: HepG2 hepatoma cell viability loss – plate reader, dry powder, cytotoxicity control, dose response (AID 651947)
# Settings: ATP luminescence (CellTiter-Glo), 48 h, active compounds read low; at 12 µM unless noted
row,SMILES,max activity
1,Fc1ccc(Cn2cc(CSc3nnc(C4CCCC4)o3)nn2)cc1,inactive: -18.5% [at 6 µM]
2,Clc1ccc(-c2nnc(SCc3cn(Cc4ccccc4)nn3)o2)cc1,inconclusive: -57.5% [at 1.6 µM]
3,Fc1cccc(-c2nnc(SCc3ccccc3)o2)c1,inconclusive: -60.6% [at 3 µM]
4,N#Cc1cccc(CSc2nnc(-c3ccccc3)o2)c1,inconclusive: -52.6% [at 0.8 µM]
5,Cc1cccc(CSc2nnc(-c3ccccc3)o2)c1,inactive: -51.5% [at 0.195 µM]
6,c1ccc(COc2nnc(-c3ccccc3)o2)cc1,inactive: -50.7% [at 1.6 µM]
7,Fc1ccc(CSc2nnc(-c3cccnc3)o2)cc1,inconclusive: -57.1% [at 0.38 µM]
8,COc1ccccc1-c1nnc(SCc2ccccc2)o1,inactive: -18.4% [at 0.195 µM]
9,FC(F)(F)Oc1ccc(CSc2nnc(-c3ccccc3)o2)cc1,inconclusive: -52.8% [at 6 µM]
10,Fc1cccc(CSc2nnc(-c3ccccc3)o2)c1,inactive: -9.21%
11,c1ccc(CSc2nnc(Cc3ccccc3)o2)cc1,inconclusive: -57.4% [at 3 µM]
12,Cc1cccc(CSc2nnc(-c3ccc(Cl)cc3)o2)n1,inactive: 26% [at 0.38 µM]
13,Cc1ccccc1-c1nnc(SCc2ccccc2)o1,inconclusive: -69.3%
14,Fc1ccc(CSc2nnc(-c3ccncc3)o2)cc1,inconclusive: -59.5%
15,COc1cccc(-c2nnc(SCc3ccccn3)o2)c1,inactive: 26.5% [at 1.6 µM]

# In another format: two of the compounds above.
row	SMILES	max activity
7	Fc1ccc(CSc2nnc(-c3cccnc3)o2)cc1	inconclusive: -57.1% [at 0.38 µM]
8	COc1ccccc1-c1nnc(SCc2ccccc2)o1	inactive: -18.4% [at 0.195 µM]
